Test results as given in PubChem BioAssay AID1259415 (National Center for Advancing Translational Sciences (NCATS), 2018).
In all, about 410,000 compounds went through this assay and about 18,000 (4.4%) were called active. Inconclusive results, whose numbers are uncertain, are shown with a selection of clear calls. Rule as the data show it: active = activity change below about -60%; inconclusive = no clear call, values can overlap the other calls; inactive = above about -39%.

Test: qHTS Assay for inhibitors of the human cytomegalovirus (HCMV)
Conditions: HFF cells, HCMV-luciferase reporter, 72 h; at 57.5 µM; active compounds read low
Method in brief: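 HFF cells seeded 16 h at 37C, treated with compounds, infected with luciferase-reporter HCMV at MOI 1 PFU/cell; luciferase read at 72 h post infection, normalized to buffer-only and Salinomycin controls.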
% is scaled to controls: 0 for no effect and ±100 for the full control effect.

SMILES	activity change, negative = inhibition
Cc1cc2nc(-c3ccc(SCC(=O)Nc4nccs4)nc3)[nH]c2cc1C	inconclusive: -57.1%
COc1ccc2oc(=O)cc(CN(C)Cc3ccccc3)c2c1	inconclusive: -59.6%
CCOc1ccc(CNC(=O)C2CCCN(c3nc4c(C)cc(C)cc4s3)C2)cc1 (stereo unspecified)	inactive: 38.1%
COc1ccc(CCNC(=O)COC(=O)Cc2ccccc2)cc1	inconclusive: -42.9%
Cc1ccc(C2CN(c3ccccc3)CC2C(=O)c2ccc(F)cc2)cc1 (stereo unspecified)	inconclusive: -41.9%
Cc1c(C(=S)Nc2ccccc2)cnn1-c1ccccc1	inactive: -20.8%
CN(Cc1ccc(Cl)cc1)C(C(=O)NC1CCCCC1)c1ccnc2ccccc12 (stereo unspecified)	inconclusive: -40.1%
COc1ccccc1C(=O)Nc1ccc2c(c1)nc1n2CCN(Cc2ccccc2)C1	active: -68.1%
O=C(NNC(=O)c1ccc([N+](=O)[O-])o1)c1ccccc1	active: -92%
Cc1ccc(C(=O)Nc2ccon2)cc1S(=O)(=O)N1CCCCCC1	active: -101%
CCc1nc(SCC(=O)OC(C)C)c2ccccc2n1	inconclusive: -51.6%
O=C(COC(=O)Cc1c(Cl)cccc1Cl)Nc1ccccc1-c1ccccc1	inactive: 12.4%
CN[C@@H](CO)C(=O)NC[C@H]1O[C@@H](n2cnc3c(N)ncnc32)[C@H](O)[C@@H]1O	inactive: -4.17%
O=C(Nc1ccccc1)c1cc(S(=O)(=O)N2CCSCC2)ccc1Cl	inconclusive: -47.4%
CC(C)(C)C1CCC(=NNC(=S)NCc2ccccc2)CC1 (stereo unspecified)	active: -62.5%
CC1=Nc2ccccc2N=C(NC(=O)CSc2nnnn2-c2ccccc2)C1c1ccccc1 (stereo unspecified)	inconclusive: -46.8%
CC(=O)NCCC(=O)N1CCc2c([nH]c3ccccc23)C1c1cccc(C)c1 (stereo unspecified)	inactive: 89.1%
CCCOc1ccc(C(=O)Nc2cccc(-c3nc4ccccc4[nH]3)c2)cc1	active: -87.8%
Cc1ccc(N2C(S)=C(C#N)C(=O)NC2c2cccs2)cc1 (stereo unspecified)	inconclusive: -54.6%

SMILES	activity change, negative = inhibition
CCN1CCN(Cc2c(O)ccc3c2O/C(=C\C=C\c2ccccc2)C3=O)CC1	inconclusive: -51.9%
CCOC(=O)c1ccc(-n2c(N)c(C(=O)OC)c3nc4ccccc4nc32)cc1	inconclusive: -57.3%
CS(=O)(=O)Nc1cccc(C2=NN(C(=O)c3ccc(F)cc3)C(c3cccs3)C2)c1 (stereo unspecified)	inconclusive: -49.7%
CCCCN(Cc1ccccc1)S(=O)(=O)c1cc(Br)cc2c1N(C(C)=O)C(C)C2 (stereo unspecified)	active: -64.7%
CC1=C(OC(=O)c2ccccc2)C(C)(C)C(c2ccc(Br)cc2)OC1=O (stereo unspecified)	inconclusive: -40.6%
COc1cc2c(cc1Cl)/C(=C\CCN(C)C)c1ccccc1S2	inactive: -32.3%
Cc1ccc(-c2nnc(-c3ccccc3)c(-c3ccccc3)n2)cc1	inconclusive: -44.4%
O=C(O)CCCN1C(=O)/C(=C/C=C/c2ccco2)SC1=S	inconclusive: -55%
O=C(Cc1ccccc1)NC(Cc1ccc(Cl)cc1)C(=O)O (stereo unspecified)	inconclusive: -51.7%
CCN(Cc1ccccc1)C(=O)COC(=O)c1cc(S(=O)(=O)Nc2c(C)n(C)n(-c3ccccc3)c2=O)ccc1C	active: -64.7%
CC(C)(C)c1ccc(S(=O)(=O)N2CCCC2C(=O)N2CCOCC2)cc1 (stereo unspecified)	inconclusive: -47.7%
COc1cc(/C=N/NC(=O)c2cccc3ccccc23)cc(OC)c1O	inconclusive: -44.7%
CCOc1ccc(S(=O)(=O)N2CCCC(C(=O)N3CCOCC3)C2)cc1C (stereo unspecified)	inactive: -20.4%
Cc1ccc(S(=O)(=O)N2CCN(CC(=O)NC(=O)NCc3ccco3)CC2)cc1C	inactive: 1.16%
CC(C)C(=O)NC(c1ccco1)c1ccc2cccnc2c1O (stereo unspecified)	active: -102%
CC(C)c1ccc(CN2CCN(C(=O)CSc3nnnn3C3CC3)CC2)cc1	active: -90.4%
COc1ccc(-c2cc(C(=O)NCCN3CCOCC3)c3cc(C(C)C)ccc3n2)cc1	inconclusive: 0%
CCOC(=O)CC(NC(=O)c1cccs1)c1ccc(C)cc1 (stereo unspecified)	inconclusive: -40.6%
O=S(=O)(/C=C/c1ccccc1)N1CCN(c2nc(-c3cccnc3)nc3ccccc23)CC1	inconclusive: -46.9%

Five entries from above, as comma-separated lines.
SMILES,"activity change, negative = inhibition"
CCOc1ccc(S(=O)(=O)N2CCCC(C(=O)N3CCOCC3)C2)cc1C (stereo unspecified),inactive: -20.4%
Cc1ccc(S(=O)(=O)N2CCN(CC(=O)NC(=O)NCc3ccco3)CC2)cc1C,inactive: 1.16%
CC(C)C(=O)NC(c1ccco1)c1ccc2cccnc2c1O (stereo unspecified),active: -102%
CC(C)c1ccc(CN2CCN(C(=O)CSc3nnnn3C3CC3)CC2)cc1,active: -90.4%
COc1ccc(-c2cc(C(=O)NCCN3CCOCC3)c3cc(C(C)C)ccc3n2)cc1,inconclusive: 0%

Remaining list, next part

SMILES	activity change, negative = inhibition
CCN(CC)c1ccc(CNc2nc3ccccc3n2CCN2CCCCC2)cc1	active: -98.7%
COc1ccc(-c2csc(NC(=S)NC(=O)c3cccs3)n2)cc1OC	inactive: -7.54%
CCOc1ccc(Oc2cc(N)cc([N+](=O)[O-])c2)cc1	inconclusive: -45.8%
O=[N+]([O-])c1ccccc1N/N=C/c1ccccc1	inactive: 67.8%
O=C(Nc1ccc(Cl)cc1)c1ccc(CN2CCc3ccccc3C2)cc1	inactive: -19.4%
CC1CCN(CCCN2C(=O)C3C(C(=O)Nc4ccc(Cl)cc4)C4C=CC3(O4)C2C(=O)NC2CCCCC2)CC1 (stereo unspecified)	inconclusive: -49.3%
O=C(NCCc1ccccc1)c1ccc2c(=O)[nH]c3c(C(=O)NCC4CCCO4)sc(=S)n3c2c1 (stereo unspecified)	inconclusive: -47.4%
NC(=O)c1nsc(C(=O)N(c2cccc(O)c2)C(C(=O)NC2CCCC2)c2ccc(Cl)cc2)c1N (stereo unspecified)	inactive: -6.42%
COc1ccc(C)cc1-n1c(C)cc(C=O)c1C	inconclusive: -42.9%
COc1ccc2oc(C(=O)N3CCCc4ccccc43)c(C)c2c1	inactive: -6.99%
CCc1ccc(-n2nc(C)c3c(C(=O)Nc4cccc(C(F)(F)F)c4)cc(C)nc32)cc1	inconclusive: -58.1%
O=C(Cc1ccc([N+](=O)[O-])cc1)Nc1cccc(C(F)(F)F)c1	inconclusive: -42.8%
CCCCCCCCn1c2c(c(=N)c3c1CCC3)CCCC2	active: -99.4%
CC(C)C(=O)c1cc2c(cc1NC(=O)c1ccccc1)OCCO2	inconclusive: -42.7%
O=C1CC(c2ccc(F)cc2)C(n2cncn2)C(O)=C1C1NCCc2ccccc21 (stereo unspecified)	inconclusive: -40.1%
Cc1ccc(NC(=O)c2sc3ccccc3c2Cl)cc1	inactive: 152%
O=C(O)c1cccc2[nH]c(C(F)(F)F)nc12	inactive: 0.51%
CCOC(=O)C1=C(C)Nc2ncnn2C1c1cc(Br)ccc1F (stereo unspecified)	inconclusive: -46.1%
